Measurements reported in publication PMC10192418, “High-affinity peptides developed against calprotectin and their application as synthetic ligands in diagnostic assays” (Nature Communications, 2023).
These are yes or no findings as the source states them, for the method shown. For part of these data: Sequences can lack the tags named with a protein.

Key:
[1] = molecular target: T1, native calprotectin derived from granulocytes (human) (UniProt P05109+P06702); assay: fluorescence polarisation; as the FP assay but CaCl2 in the dilution buffer replaced with 1 mM EDTA; calprotectin dimer; both purified
T1 sequence 1: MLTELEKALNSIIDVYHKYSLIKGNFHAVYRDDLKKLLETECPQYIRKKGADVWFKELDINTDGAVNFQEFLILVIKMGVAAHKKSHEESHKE
T1 sequence 2: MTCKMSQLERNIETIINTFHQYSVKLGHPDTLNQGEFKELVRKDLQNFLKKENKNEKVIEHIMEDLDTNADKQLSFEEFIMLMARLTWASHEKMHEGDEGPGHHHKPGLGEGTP

[2] = molecular target: T2, B-RCAL (BÜHLMANN recombinant calprotectin; His6-linker-S100A9-linker-S100A8) (human); assay: as above
T2 sequence: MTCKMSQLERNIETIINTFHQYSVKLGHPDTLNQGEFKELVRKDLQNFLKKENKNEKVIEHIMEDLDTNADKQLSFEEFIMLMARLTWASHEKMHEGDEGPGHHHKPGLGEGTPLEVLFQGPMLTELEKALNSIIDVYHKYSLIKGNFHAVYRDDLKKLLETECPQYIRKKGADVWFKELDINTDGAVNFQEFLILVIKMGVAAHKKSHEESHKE

[3] = molecular target: T2, B-RCAL (BÜHLMANN recombinant calprotectin; His6-linker-S100A9-linker-S100A8) (human); assay: dynamic light scattering + other: mass photometry; B-RCAL in 20 mM HEPES, 100 mM NaCl, pH 7.5 with 10 mM EDTA, 1 h at room temperature; dimer = one B-RCAL fusion chain; both purified

B1: linear peptide 3 (peptide)
peptide: RSPESVAFPMFQSHWYSG
modifications: 5(6)-carboxyfluorescein on the N-terminus
For B1, the binding [1] was “no binding (condition: with 1 mM EDTA)” and the binding [2] was “no binding (condition: with 1 mM EDTA)”.

B2: B-RCAL (BÜHLMANN recombinant calprotectin; His6-linker-S100A9-linker-S100A8) (complex)
chain: MTCKMSQLERNIETIINTFHQYSVKLGHPDTLNQGEFKELVRKDLQNFLKKENKNEKVIEHIMEDLDTNADKQLSFEEFIMLMARLTWASHEKMHEGDEGPGHHHKPGLGEGTPLEVLFQGPMLTELEKALNSIIDVYHKYSLIKGNFHAVYRDDLKKLLETECPQYIRKKGADVWFKELDINTDGAVNFQEFLILVIKMGVAAHKKSHEESHKE
With B2 the binding [3] was “no binding (condition: with 10 mM EDTA)”.
